Source: ChEMBL document CHEMBL3132851, “Achieving improved permeability by hydrogen bond donor modulation in a series of MGAT2 inhibitors” (Medchemcomm, 2013)

Experiment: Lipophilicity, log D of the compound at pH 7.4 after 30 mins by shake-flask method
Details: buffer, pH 7.4, logD

Row | Structure (SMILES) | logD at 0.5 h
1 | Cc1cc2c(cc1S(=O)(=O)Nc1ccc(C(F)(F)F)cc1)C(=O)NC(C)(C)C(=O)N2 | 3
2 | CC1(C)NC(=O)c2cc(S(=O)(=O)Nc3ccc(C(F)(F)F)cc3)c(F)cc2NC1=O | 2.3
